PubChem BioAssay AID720710 | VTT Finland – 2013

Test: 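Knock-downs that leave cyclin E-high cells sensitive to replication stress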 (primary screen)
Cells: human U-2 OS bone cancer cells, parental and a cyclin E (CCNE1) overexpressing line
Reagent: single siRNA against human genes, 1 µM siRNA in the printed spot mix
Time to read-out: 67 h
Conditions: half the arrays: hydroxyurea 2 mM for 16 h, then 3 h recovery; other arrays untreated
Detection: 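DNA synthesis measured as imaged EdU uptake per nucleus (DAPI) at 67 h, normalised to subgrid median and given as z-score versus non-targeting controls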
Scale: EdU z-score, cyclin E line, hydroxyurea and EdU z-score, parental, hydroxyurea: higher = more DNA synthesis than non-targeting controls
The whole screen tested about 1,380 reagents; this is a part drawn at random. 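One array per condition without replicates; hydroxyurea arrays received 2 mM for 16 h plus 3 h recovery.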 The numbers tell different reagents against one gene apart. Not all columns of the deposit are shown.

What is on record for NEIL2 #1?
EdU z-score, cyclin E line, hydroxyurea: -1.11; EdU z-score, parental, hydroxyurea: -1.96

What is on record for NEIL2 #2?
EdU z-score, cyclin E line, hydroxyurea: 1.25; EdU z-score, parental, hydroxyurea: -1.25

What did the screen give for NBN #1?
EdU z-score, cyclin E line, hydroxyurea: -2.15; EdU z-score, parental, hydroxyurea: -0.187

What did the screen give for NBN #2?
EdU z-score, cyclin E line, hydroxyurea: -1.96; EdU z-score, parental, hydroxyurea: 1.31

What is on record for MUTYH #1?
EdU z-score, cyclin E line, hydroxyurea: -1.58; EdU z-score, parental, hydroxyurea: -0.132

How did the screen score MUTYH #2?
EdU z-score, cyclin E line, hydroxyurea: 0.796; EdU z-score, parental, hydroxyurea: 2.56

With RNASEH2A #1, what was measured?
EdU z-score, cyclin E line, hydroxyurea: 2.04; EdU z-score, parental, hydroxyurea: -1.88

With RNASEH2A #2, what was measured?
EdU z-score, cyclin E line, hydroxyurea: 2.19; EdU z-score, parental, hydroxyurea: 1

For ESCO2 #1, how do the results read?
EdU z-score, cyclin E line, hydroxyurea: -0.995; EdU z-score, parental, hydroxyurea: -0.699

What is on record for ESCO2 #2?
EdU z-score, cyclin E line, hydroxyurea: 0.816; EdU z-score, parental, hydroxyurea: -0.484

With SSRP1 #1, how do the results read?
EdU z-score, cyclin E line, hydroxyurea: 0.642; EdU z-score, parental, hydroxyurea: 1.05

Which result is listed for SSRP1 #2?
EdU z-score, cyclin E line, hydroxyurea: 1.05; EdU z-score, parental, hydroxyurea: 3.68

With SIRT6 #1, what does the deposit list?
EdU z-score, cyclin E line, hydroxyurea: -2.39; EdU z-score, parental, hydroxyurea: -1.39

With SIRT6 #2, how do the results read?
EdU z-score, cyclin E line, hydroxyurea: 2.02; EdU z-score, parental, hydroxyurea: 0.624

With RECQL4 #1, what was measured?
EdU z-score, cyclin E line, hydroxyurea: -0.969; EdU z-score, parental, hydroxyurea: -5.96

What did the screen give for RECQL4 #2?
EdU z-score, cyclin E line, hydroxyurea: 0.545; EdU z-score, parental, hydroxyurea: 1.65

Which result is listed for ERCC2 #1?
EdU z-score, cyclin E line, hydroxyurea: -1.05; EdU z-score, parental, hydroxyurea: -1.23

For ERCC2 #2, what was measured?
EdU z-score, cyclin E line, hydroxyurea: -0.258; EdU z-score, parental, hydroxyurea: 3.52

Which result is listed for RNF25 #1?
EdU z-score, cyclin E line, hydroxyurea: -1.91; EdU z-score, parental, hydroxyurea: -2.92

Which result is listed for RNF25 #2?
EdU z-score, cyclin E line, hydroxyurea: -1.31; EdU z-score, parental, hydroxyurea: -1.4

What is on record for TOP3A #1?
EdU z-score, cyclin E line, hydroxyurea: -0.23; EdU z-score, parental, hydroxyurea: -0.403

With TOP3A #2, what does the deposit list?
EdU z-score, cyclin E line, hydroxyurea: 0.326; EdU z-score, parental, hydroxyurea: 3.37

For RAD54B #1, what was measured?
EdU z-score, cyclin E line, hydroxyurea: -1.31; EdU z-score, parental, hydroxyurea: 0.216

How did the screen score RAD54B #2?
EdU z-score, cyclin E line, hydroxyurea: -0.377; EdU z-score, parental, hydroxyurea: 0.9

With EME1 #1, what was measured?
EdU z-score, cyclin E line, hydroxyurea: -1.28; EdU z-score, parental, hydroxyurea: -1.21

What did the screen give for EME1 #2?
EdU z-score, cyclin E line, hydroxyurea: 1.73; EdU z-score, parental, hydroxyurea: 0.106

Which result is listed for CHEK2 #1?
EdU z-score, cyclin E line, hydroxyurea: -1.76; EdU z-score, parental, hydroxyurea: -1.41

What did the screen give for CHEK2 #2?
EdU z-score, cyclin E line, hydroxyurea: 4.4; EdU z-score, parental, hydroxyurea: 0.701

What did the screen give for H2BC10 #1?
EdU z-score, cyclin E line, hydroxyurea: -0.0724; EdU z-score, parental, hydroxyurea: -1.98

What is on record for H2BC10 #2?
EdU z-score, cyclin E line, hydroxyurea: 1.01; EdU z-score, parental, hydroxyurea: -1.34

How did the screen score ZNF521 #1?
EdU z-score, cyclin E line, hydroxyurea: -0.61; EdU z-score, parental, hydroxyurea: 0.949

Which result is listed for ZNF521 #2?
EdU z-score, cyclin E line, hydroxyurea: 0.938; EdU z-score, parental, hydroxyurea: 1.59
